{
  "sequences": {"note": "Amino acid sequences for entries named in this document (tags omitted).", "UniProt P53350, whole entry, looked up": "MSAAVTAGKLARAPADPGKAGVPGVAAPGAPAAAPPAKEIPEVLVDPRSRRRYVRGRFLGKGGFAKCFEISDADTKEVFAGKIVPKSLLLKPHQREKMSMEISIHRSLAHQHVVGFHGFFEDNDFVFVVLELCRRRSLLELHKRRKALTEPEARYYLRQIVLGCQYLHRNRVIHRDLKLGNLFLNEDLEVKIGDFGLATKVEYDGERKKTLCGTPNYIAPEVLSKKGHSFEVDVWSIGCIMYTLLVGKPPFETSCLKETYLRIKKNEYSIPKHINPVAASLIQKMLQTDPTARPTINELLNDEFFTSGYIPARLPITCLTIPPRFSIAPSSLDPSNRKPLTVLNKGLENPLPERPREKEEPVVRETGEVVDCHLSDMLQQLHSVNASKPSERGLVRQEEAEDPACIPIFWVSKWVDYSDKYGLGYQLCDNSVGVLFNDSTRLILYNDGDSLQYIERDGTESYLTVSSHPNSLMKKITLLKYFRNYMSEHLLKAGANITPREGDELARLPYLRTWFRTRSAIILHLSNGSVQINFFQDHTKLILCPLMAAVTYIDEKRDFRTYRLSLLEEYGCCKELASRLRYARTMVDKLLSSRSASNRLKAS"},
  "source": "PubChem BioAssay AID720504",
  "about": "(National Center for Advancing Translational Sciences (NCATS), 2013)",
  "note": "About 10,000 (2.8%) of roughly 360,000 compounds were called active. The inconclusive results got no clear call from the source; some entries with a clear call stand among them for comparison. Calls come from the whole dose curve; as a rule, active = well fitted inhibition curve with a large enough effect; inconclusive = small, poorly fitted or top-dose-only effect; inactive = flat fitted curve, though single readings scatter. Potencies beside an inconclusive call are fits to weak or partial responses and may not hold up. % is set by controls: 0 for no effect and ±100 for the full control effect; potency is the fitted concentration of half-maximal effect.",
  "data": [
    {"biological_target": "Serine/threonine-protein kinase PLK1 (Homo sapiens) (UniProt P53350)", "assay": "qHTS for Inhibitors of PLK1-PDB (polo-like kinase 1 - polo-box domain): Primary Screen; note: nearly all actives have a fitted effect of over 65% in size; for max response, negative = inhibition: series mostly up to about 57 µM", "settings": "Plk1 PBD binding of FITC phosphopeptide, fluorescence polarization", "values": [
      {"smiles": "O=C(/C=C/c1ccc([N+](=O)[O-])cc1)NC1CC2CCC1C2", "note": "(stereo not given)", "Potency": "active: 5.97 µM"},
      {"smiles": "Cc1ccccc1NNC(=O)C(=O)NNc1ccccc1C", "max response, negative = inhibition": "inactive: -14.3%"},
      {"smiles": "COc1ccc(-c2onc3ccc(C(C)=O)cc23)cc1", "max response, negative = inhibition": "inconclusive: 0% [inhibitor]"},
      {"smiles": "CC(C)(C)C(=O)Nc1sc2c(c1-c1nc3ccccc3[nH]1)CCCC2", "max response, negative = inhibition": "inactive: -11%"},
      {"smiles": "COCCn1nnnc1CN1CCN(c2cccc(C(F)(F)F)c2)CC1", "Potency": "inconclusive: 37.7 µM [inhibitor, single point]"},
      {"smiles": "CC(C#N)Sc1ccc(S(=O)(=O)N2CCCCC2)cn1", "note": "(stereo not given)", "max response, negative = inhibition": "inconclusive: -30.6% [inhibitor]"},
      {"smiles": "O=C1c2ccccc2NC(c2ccc(F)cc2)N1Cc1ccco1", "note": "(stereo not given)", "max response, negative = inhibition": "inactive: -14.6%"},
      {"smiles": "CC(C)C[C@@H](CO)N1CCN(Cc2ccccc2)CCC1=O", "max response, negative = inhibition": "inconclusive: -30.6% [inhibitor]"},
      {"smiles": "COc1cccc(CN(C(=O)Cc2c[nH]c3ccccc23)C(C(=O)NC2CCCCC2)c2ccc(C)o2)c1", "note": "(stereo not given)", "max response, negative = inhibition": "inactive: -2.75%"},
      {"smiles": "O=C(COc1ccccc1)Nc1nnc(-c2ccco2)o1", "max response, negative = inhibition": "inactive: -3.19%"},
      {"smiles": "COc1cccc(NC(=O)c2ccc(-c3ccc([N+](=O)[O-])cc3)o2)c1", "max response, negative = inhibition": "inactive: -12.7%"},
      {"smiles": "O=C(O)Cc1nc(-c2cccnc2)sc1-c1ccc(Br)cc1", "Potency": "inconclusive: 26.7 µM [inhibitor, partial curve]"},
      {"smiles": "COC(=O)/C=C1\\SC(=NC(=O)c2ccc(-c3ccccc3)cc2)NC1=O", "Potency": "active: 18.9 µM"},
      {"smiles": "Cc1cccc(C)c1NC(=S)N(c1ccccc1)C(C)C", "Potency": "active: 29.9 µM"},
      {"smiles": "CC(=O)c1ccc(NC(=O)CNCC(c2ccccc2)N(C)C)cc1", "note": "(stereo not given)", "Potency": "active: 18.9 µM"},
      {"smiles": "O=C(NNC(=O)c1cccc(Br)c1)Nc1ccc(Cl)cc1", "Potency": "active: 21.2 µM"},
      {"smiles": "O=C(O)c1ccc2c3c(cccc13)C(=O)N(c1ccccc1)C2=O", "max response, negative = inhibition": "inconclusive: -34.8% [inhibitor]"},
      {"smiles": "CCc1ccc(-c2nc(CS(=O)CC(=O)O)c(C)o2)cc1", "note": "(stereo not given)", "Potency": "inconclusive: 26.7 µM [inhibitor, partial curve]"},
      {"smiles": "CSc1nc(-c2ccco2)nn1C(=O)c1ccccc1", "Potency": "active: 10.6 µM"},
      {"smiles": "C=CCNC1=C(Cl)C(=O)c2ccccc2C1=O", "max response, negative = inhibition": "inactive: -6.82%"},
      {"smiles": "Cc1c(C(=O)OCc2ccccc2)[nH]c2c1C(=O)CC(c1ccco1)C2", "note": "(stereo not given)", "Potency": "inconclusive: 23.8 µM [inhibitor, partial curve]"},
      {"smiles": "CCc1c(C)nc(N2CCN(c3ccc(Cl)cc3)CC2)[nH]c1=O", "Potency": "active: 23.8 µM"},
      {"smiles": "COC(=O)Cc1[nH]nc2c1C(c1cc(OC)c(OC)c(OC)c1)C(C#N)=C(N)O2", "note": "(stereo not given)", "Potency": "inconclusive: 37.7 µM [inhibitor, single point]"},
      {"smiles": "COc1ccc(N2CCC(CNC(=O)Nc3ccccc3)C2)cc1", "note": "(stereo not given)", "max response, negative = inhibition": "inactive: -2.95%"},
      {"smiles": "Cc1cc(/C=c2\\sc3nc4ccccc4n3c2=O)c(C)n1-c1ccc(C(=O)O)cc1", "Potency": "active: 21.2 µM"},
      {"smiles": "CCOc1ccc(NC(=S)NN(C)C(=S)Nc2ccc(OCC)cc2)cc1", "Potency": "inconclusive: 21.2 µM [inhibitor, single point]"},
      {"smiles": "O=C(N[C@H]1CC[C@H](CCNS(=O)(=O)c2ccc(Cl)cc2)O[C@@H]1CO)c1cccc(F)c1", "max response, negative = inhibition": "inconclusive: -31.8% [inhibitor]"},
      {"smiles": "CC[n+]1c(C)n(C)c2cc(S(=O)(=O)N(C)C)ccc21", "max response, negative = inhibition": "inactive: -7.97%"},
      {"smiles": "Cc1ccc(S(=O)(=O)Nn2c(O)c(C=C3N=c4ccccc4=N3)sc2=S)cc1", "Potency": "inconclusive: 29.9 µM [inhibitor, single point]"},
      {"smiles": "CN1CCN(C2=CC3=CC(=C(C#N)C#N)CCC3CC2)CC1", "note": "(stereo not given)", "max response, negative = inhibition": "inactive: -39.5%"},
      {"smiles": "O=C(CSc1ncn[nH]1)c1ccccc1", "Potency": "active: 23.8 µM"},
      {"smiles": "Cc1ccccc1N1CCN(C(=S)c2ccc(-c3cccc([N+](=O)[O-])c3)o2)CC1", "Potency": "inconclusive: 26.7 µM [inhibitor, partial curve]"},
      {"smiles": "Cc1ccc(C)c(N2CCN(C(c3ccncc3)c3nnnn3Cc3ccccc3)CC2)c1", "note": "(stereo not given)", "max response, negative = inhibition": "inactive: -15.8%"},
      {"smiles": "Clc1ccc(C2Nc3cccc4cccc(c34)N2)cc1Cl", "Potency": "inconclusive: 15 µM [inhibitor, partial curve]"},
      {"smiles": "O=S(=O)(/N=C/c1c(O)ccc2ccccc12)c1ccccc1", "Potency": "active: 15 µM"},
      {"smiles": "Oc1c(Br)cc(Br)cc1C=NCc1ccc(F)cc1", "Potency": "inconclusive: 26.7 µM [inhibitor, partial curve]"},
      {"smiles": "O=C(CCCC(=O)OCC(=O)c1cccs1)Nc1ccc(F)cc1", "Potency": "inconclusive: 8.44 µM [inhibitor, single point]"},
      {"smiles": "COc1cc(C2c3c([nH]c(=O)[nH]c3=O)Nc3ccc4ccccc4c32)cc(OC)c1OC", "note": "(stereo not given)", "max response, negative = inhibition": "inconclusive: -32.2% [inhibitor]"},
      {"smiles": "COc1ccccc1C(=O)O/N=C(\\N)c1ccc(Cl)cc1", "max response, negative = inhibition": "inactive: -6.76%"},
      {"smiles": "Cc1cccc(OCCn2c(=S)[nH]c3ccccc32)c1", "Potency": "active: 5.97 µM"},
      {"smiles": "CCCCn1c(SCC(=O)c2cc(OC)ccc2OC)nc2cc(S(N)(=O)=O)ccc21", "Potency": "inconclusive: 37.7 µM [inhibitor, single point]"},
      {"smiles": "COC(=O)CCC(=O)OC1(C)C(=O)C2=CN(C3CCCC3)C(c3ccc(OC)cc3)=CC2=C(Br)C1=O", "note": "(stereo not given)", "Potency": "inconclusive: 11.9 µM [inhibitor, partial curve]"},
      {"smiles": "Cc1ccc(S(=O)(=O)/N=C2\\C=C(NS(=O)(=O)c3ccccc3)C(=O)c3ccccc32)cc1", "Potency": "active: 15 µM"},
      {"smiles": "O=C(O)C(Oc1ccc2c(-c3ccccc3)cc(=O)oc2c1)c1ccccc1", "note": "(stereo not given)", "Potency": "inconclusive: 67 µM [inhibitor, partial curve]"},
      {"smiles": "COc1ccc(S(=O)(=O)Oc2cc(C(=S)N3CCOCC3)ccc2OC)cc1", "max response, negative = inhibition": "inconclusive: -34.6% [inhibitor]"},
      {"smiles": "COc1ccc(CN(C)C(=S)Nc2ccc(Cl)cc2)cc1", "max response, negative = inhibition": "inactive: -20.4%"},
      {"smiles": "O=C(CNc1ccc(F)cc1)N/N=C1\\CCCc2ccccc21", "Potency": "inconclusive: 21.2 µM [inhibitor, partial curve]"},
      {"smiles": "COc1ccc(CC(=O)OCC(=O)Nc2ncc(Cl)c(C)c2Cl)cc1", "max response, negative = inhibition": "inactive: -19.7%"},
      {"smiles": "CCOC(=O)[C@]12Cc3c(cc(OC)c(OC)c3OC)[C@H]1N(Cc1ccccc1)C(=O)c1cc(F)c(F)cc12", "Potency": "inconclusive: 21.2 µM [inhibitor, single point]"},
      {"smiles": "O=C(/C=C/c1ccco1)NC(=S)Nc1ccccc1N1CCCC1", "Potency": "inconclusive: 33.6 µM [inhibitor, partial curve]"},
      {"smiles": "CCOc1ccc(C2NC(=O)c3sc(=S)n(-c4ccccc4)c3N2)cc1", "note": "(stereo not given)", "Potency": "inconclusive: 33.6 µM [inhibitor, partial curve]"},
      {"smiles": "CC1CCc2c(C(=O)Nc3cccc(-c4nn[nH]n4)c3)csc2C1", "note": "(stereo not given)", "Potency": "inconclusive: 23.8 µM [inhibitor, partial curve]"},
      {"smiles": "O=C(c1ccc(S(=O)(=O)Cc2cc(F)ccc2F)c([N+](=O)[O-])c1)N1CCOCC1", "Potency": "active: 26.7 µM"},
      {"smiles": "ClCc1nc2ccccc2c2ccccc12", "Potency": "inconclusive: 26.7 µM [inhibitor, partial curve]"},
      {"smiles": "O=S(=O)(Nc1ccc(C(F)(F)F)cc1)c1cnc[nH]1", "Potency": "active: 29.9 µM"},
      {"smiles": "CCn1c(SCC(=O)Nc2ccc(N3CCOCC3)cc2)nnc1-c1ccc(OC)cc1", "Potency": "inconclusive: 21.2 µM [inhibitor, single point]"},
      {"smiles": "COc1cc(C(=O)N/C(=C\\c2cn(C)c3ccccc23)C(=O)NCCCN2CCOCC2)cc(OC)c1OC", "Potency": "active: 16.8 µM"},
      {"smiles": "Cc1c(Cc2ccccc2)sc(/N=C/c2ccc3ccccc3c2)c1C(N)=O", "Potency": "inconclusive: 26.7 µM [inhibitor, single point]"},
      {"smiles": "COC(=O)C1=C(C)N(CCc2ccc(OC)c(OC)c2)C(=O)/C1=C\\N(C)C", "Potency": "inconclusive: 29.9 µM [inhibitor, single point]"},
      {"smiles": "O=C(O)c1ccc(O)cc1O", "max response, negative = inhibition": "inactive: -5.27%"},
      {"smiles": "CCN(CC)S(=O)(=O)c1cc(NC(=O)c2ccc(Br)s2)ccc1C", "Potency": "active: 18.9 µM"},
      {"smiles": "COc1cc(CNc2cccc3[nH]c(C(F)(F)F)nc23)cc(OC)c1", "Potency": "active: 26.7 µM"},
      {"smiles": "N#Cc1ccc(-c2csc(NC(=O)c3ccc(S(=O)(=O)N4CCc5ccccc5C4)cc3)n2)cc1", "max response, negative = inhibition": "inactive: -7.95%"},
      {"smiles": "O=C(NCCOc1ccccc1)c1cc([N+](=O)[O-])ccc1N1CCOCC1", "max response, negative = inhibition": "inactive: -3.49%"},
      {"smiles": "CCc1nnc2sc(-c3cc(-c4ccccc4)nc4ccccc34)nn12", "max response, negative = inhibition": "inactive: -6.87%"},
      {"smiles": "COc1cc(-c2nn3c(Cc4ccccc4)nnc3s2)cc(OC)c1OC", "Potency": "active: 26.7 µM"},
      {"smiles": "Cc1c(/C=C(\\CC(=O)O)c2nc3ccccc3s2)cc(C#N)n1C", "Potency": "active: 26.7 µM"},
      {"smiles": "CCN(CC(=O)Nc1ccc(OC)cc1)CC(=O)Nc1cccc(S(=O)(=O)N2CCOCC2)c1", "max response, negative = inhibition": "inactive: 0.0551%"},
      {"smiles": "CCCc1nnc(NC(=O)CCCN2C(=O)c3ccccc3C2=O)s1", "Potency": "active: 26.7 µM"},
      {"smiles": "Cc1ccc(/C(N)=N/OC(=O)c2ccc(C)cc2Cl)cc1", "max response, negative = inhibition": "inactive: -1.82%"},
      {"smiles": "CCCCCCCNC(=O)C1(CC2CC(c3ccccc3)=NO2)CCN(C(=O)c2ccccc2)CC1", "note": "(stereo not given)", "Potency": "inconclusive: 29.9 µM [inhibitor, single point]"},
      {"smiles": "CCCC1Oc2ccccc2C(=O)N(CC(=O)c2ccc3c(c2)OCCO3)C1=O", "note": "(stereo not given)", "Potency": "inconclusive: 26.7 µM [inhibitor, single point]"},
      {"smiles": "O=C(O)c1ccc(NN=CC2=C(N3CCOCC3)/C(=C/c3ccccc3)CC2)cc1", "Potency": "inconclusive: 23.8 µM [inhibitor, partial curve]"},
      {"smiles": "CN(C)CCN1CCN(c2cc(-c3cccc(Cl)c3)nc3ccnn23)CC1", "max response, negative = inhibition": "inactive: -12.4%"},
      {"smiles": "O=C(Nc1cccs1)N1CCN(c2ncccn2)CC1", "Potency": "inconclusive: 26.7 µM [inhibitor, single point]"}
    ]}
  ]
}
